The values below come from patent US12139488B2, “Pyrido[3,2-d]pyrimidine compounds uses thereof for treating a proliferative disease” (Universite de Montreal, priority 2021, dated 2024).

By UniProt entry, the sequences of proteins in these tests, tags left out.
UniProt P15056, whole entry: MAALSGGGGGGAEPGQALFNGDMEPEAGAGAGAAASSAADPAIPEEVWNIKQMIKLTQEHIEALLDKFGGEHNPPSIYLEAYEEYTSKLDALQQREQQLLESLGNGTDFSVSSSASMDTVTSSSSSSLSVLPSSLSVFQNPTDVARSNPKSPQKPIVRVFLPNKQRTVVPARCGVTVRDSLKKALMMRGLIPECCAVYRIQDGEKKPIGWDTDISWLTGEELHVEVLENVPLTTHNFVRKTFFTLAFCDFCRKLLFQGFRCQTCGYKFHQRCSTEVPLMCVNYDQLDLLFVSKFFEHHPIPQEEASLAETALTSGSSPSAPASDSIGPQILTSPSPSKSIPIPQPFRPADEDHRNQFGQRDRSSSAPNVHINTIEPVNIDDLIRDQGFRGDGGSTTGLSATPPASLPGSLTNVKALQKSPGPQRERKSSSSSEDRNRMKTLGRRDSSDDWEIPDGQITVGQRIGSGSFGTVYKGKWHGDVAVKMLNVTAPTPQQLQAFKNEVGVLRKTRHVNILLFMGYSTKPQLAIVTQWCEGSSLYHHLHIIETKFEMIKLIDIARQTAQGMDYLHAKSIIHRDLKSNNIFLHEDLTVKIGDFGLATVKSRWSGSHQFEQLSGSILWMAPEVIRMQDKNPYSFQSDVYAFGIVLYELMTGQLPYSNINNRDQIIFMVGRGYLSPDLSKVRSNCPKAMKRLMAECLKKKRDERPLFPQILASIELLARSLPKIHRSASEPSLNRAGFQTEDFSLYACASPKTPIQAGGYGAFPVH
UniProt P04049, whole entry: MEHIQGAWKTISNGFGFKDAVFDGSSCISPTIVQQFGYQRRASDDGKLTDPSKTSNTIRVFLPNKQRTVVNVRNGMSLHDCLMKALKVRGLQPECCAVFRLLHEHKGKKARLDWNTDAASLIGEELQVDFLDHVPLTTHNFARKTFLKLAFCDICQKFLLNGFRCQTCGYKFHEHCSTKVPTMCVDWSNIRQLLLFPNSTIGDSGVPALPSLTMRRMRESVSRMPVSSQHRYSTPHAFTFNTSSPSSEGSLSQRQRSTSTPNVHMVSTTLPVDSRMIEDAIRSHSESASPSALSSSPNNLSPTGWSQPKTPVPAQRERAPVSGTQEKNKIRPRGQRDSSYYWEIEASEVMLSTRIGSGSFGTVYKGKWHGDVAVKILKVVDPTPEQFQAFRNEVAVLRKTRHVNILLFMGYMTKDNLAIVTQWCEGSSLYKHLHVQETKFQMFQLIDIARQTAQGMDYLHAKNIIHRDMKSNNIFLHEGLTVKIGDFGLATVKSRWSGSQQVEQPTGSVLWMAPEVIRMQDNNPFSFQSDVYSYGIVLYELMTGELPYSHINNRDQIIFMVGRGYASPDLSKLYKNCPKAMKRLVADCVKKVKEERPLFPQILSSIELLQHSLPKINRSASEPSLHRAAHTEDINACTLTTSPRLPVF

Broadly, the IC50 is the concentration that inhibits the measured activity by half.

Assay [1] has as its system pERK in HCT-116 cells (KRAS G13D). Description: Phospho-ERK inhibition (AlphaLISA SureFire Ultra p-ERK 1/2), HCT116. On the procedure: All cancer cell lines (A375, A101D, A2058, RKO, HT29 SK-MEL 30, IPC298, HepG2, HCT-116, Lovo, SWV620, SW480, NCI-H358, NCI-H2122, Calu-6, NCIH2087, NCIH1755, NCIH1666 and Mewo) were obtained from ATCC and cultured in RPMI-1640 medium (Gibco) supplemented with 5% heat inactivated fetal bovine serum (FBS, Wisent) at 37° C. under 5% CO2. Cells were maintained in T175 flasks (Greiner). They were passaged by removing the culture medium, washing once in 10 mL of room temperature Phosphate Buffered Saline (PBS; Wisent) and incubating at 37° C. with 2 mL of 0.05% Trypsin (Thermo-Fisher). Trypsin was then inactivated by adding complete growth medium and the cells were then replated in a T175 culture dish at the appropriate dilution. All cell lines were routinely tested for mycoplasma contamination. Tissue type and mutational status of each cell line can be found in Table B.
AlphaLISA® SureFire® Ultra™ p-ERK 1/2 (Thr202/Tyr204) analysis was conducted on cells plated in 100 μL of complete RPMI-1640 growth medium in 96-well flat-bottomed transparent dishes (Costar) at a density indicated in Table C. Cells were maintained overnight at 37° C. under 5% CO2 before treatment with compounds' dilution series for one hour. The cell density in cells/cm^2 corresponds to cell number divided by the area of one well of a 96-well plate ([…]). […]
After treatment, media was removed and cells were lysed in 50 μL of 1× AlphaScreen Ultra Lysis Buffer (Perkin Elmer). […] After completion of the reactions, the signals were recorded on an EnVision plate reader (Perkin Elmer) using built in AlphaLISA® settings.
The effect of each compound dilution on the pERK signal was expressed in % inhibition and calculated as follows. […]
The ability of each compound to inhibit pERK signal was expressed as an IC50 value obtained by plotting the inhibition values for each data point of a dilution series and fitting the obtained curves using a log(agonist) versus response-variable slope (four parameters) function using GraphPadPrism (V7.0) or Dotmatics Screening Ultra platform. […]
(In Alpha technology, singlet oxygen from a donor bead excites a nearby acceptor bead.)

A further assay concerns the target BRAF (Homo sapiens (Human), UniProt P15056). The experiment in a line: BRAF kinase activity assay (ADP-Glo). The following applies: read-out: Kinase IC50 (nM), BRAF biochemical kinase assay. A general note: In ADP-Glo the light output rises with the ADP produced.
The target in another assay is CRAF (Homo sapiens, UniProt P04049). The experiment in a line: CRAF kinase activity assay (ADP-Glo). The following applies: read-out: Kinase IC50 (nM), CRAF biochemical kinase assay.

Where two headings read alike, the source gives them in different places. The match of structure and compound is tentative.

Consider `O=S(=O)(Nc1ccc(F)c(Nc2ncnc3ccc(-c4cncs4)nc23)c1F)c1cccc(Cl)c1Cl`, for which the IC50 in assay [1] (read-out: HCT116 pERK IC50, class symbol) is less than 500 nM.

Take `O=S(=O)(Nc1ccc(F)c(Nc2ncnc3ccc(-n4cnc5c(N6CCN(CCO)CC6)cccc54)nc23)c1F)c1cccc(Cl)c1Cl` [586]: in assay [1] (Ymin above −20% = minimal or no paradoxical activation), the “HCT116 pERK % Ymin (lowest value of the IC50 curve)” value is recorded as −3%. For the same molecule, the IC50 in assay [1] (read-out: HCT116 pERK IC50) is less than 500 nM; on BRAF it was less than 1 nM; on CRAF it was less than 10 nM.
